Assay results reported in patent US12312346B2, “Pyridopyrimidine compounds and methods of their use” (Tufts Medical Center, Inc., priority 2018, dated 2025).
At least one structure is not confirmed: it was looked up by name or label, or the drawing left a doubt.

Legend:
mouse WT-MEFs = assay: Cell cycle and cell number, WT-MEFs; assay type: cell-based; details: 6 days; PD 0.5 μM
Experimental: FIG. 6A is a series of charts showing representative cell cycle profiles of mouse WT-MEFs treated with a vehicle (V), PD (0.5 μM), LEE (10 μM), or compound GD at 1, 5, and 10 μM for 6 days.
FIG. 6B is a histogram summarizing the cell cycle distribution in FIG. 6A. Data shown are mean±S.D. (n=6); *P<0.05 vs vehicle control, t-test.
FIG. 6C is a chart showing the percentage of S-G2-M cells in FIG. 6B.
FIG. 6D is a bar graph summarizing the cell number of WT-MEFs treated with PD (0.5 μM), LEE (10 μM), or compound GD at varying doses for 6 days. Data shown are mean±S.D. (n=6); *P<0.05 vs vehicle control, t-test.
(§1) HCl salt of 6-acetyl-5-methyl-2-((4-(piperazin-1-ylmethyl)thiazol-2-yl)amino)pyrido[2,3-d]pyrimidin-7(8H)-one (Compound GD) prepared in Example 1 was examined for its inhibitory activity in cancer cell lines and WT and CDK6^−/− mouse embryonic fibroblasts (MEFs) and stromal vascular fractions (SVFs). MEFs and SVFs are enriched with mesenchymal stem cells (MSC) and pre-adipocytes which can differentiate into a variety of cell types, including adipocytes.

[1] = system: mouse KO-MEFs (CDK6^−/− MEFs); assay: Cell cycle and cell number, CDK6-/- MEFs (KO-MEFs); assay type: cell-based; details: 6 days; GD 1-20 μM, PD 0.5 μM
Experimental: FIG. 6E is a series of charts showing representative cell cycle profiles of mouse KO-MEFs treated with a vehicle (V), PD (0.5 μM), or compound GD at 1, 5, 10, and 20 μM for 6 days.
FIG. 6F is a histogram summarizing the cell cycle distribution in FIG. 6E. Data shown are mean±S.D. (n=6); *P<0.05 vs its vehicle control, t-test.
FIG. 6G is a bar graph summarizing the cell numbers of KO-MEFs treated with PD (0.5 μM) or compound GD at different doses for 6 days. Data shown are mean±S.D. (n=6); *P<0.05 vs its vehicle control, t-test.
as §1

mouse WT SVFs = assay: Cell number, WT-SVFs; assay type: cell-based; details: 6 days; GD 0.1-10 μM
Experimental: FIG. 7A is a bar graph showing the cell numbers of WT-SVFs treated with LEE (10 μM) or compound GD at 0.1, 0.5, 1.0, 5.0, and 10 μM for 6 days. Data shown are mean±S.D. (n=6); *P<0.05 vs its vehicle control, t-test.
as §1

CDK6^−/− SVFs (KO-SVFs) = assay: Cell number, KO-SVFs; assay type: cell-based, mouse; details: 6 days; GD 0.1-10 μM
Experimental: FIG. 7B is a bar graph showing the cell numbers of KO-SVFs treated with LEE (10 μM) or compound GD at 0.1, 0.5, 1.0, 5.0, and 10 μM for 6 days. Data shown are mean±S.D. (n=6); *P<0.05 vs its vehicle control, t-test.
as §1

## CC(=O)c1c(C)c2cnc(Nc3ccc(N4CCNCC4)cn3)nc2n(C2CCCC2)c1=O [PD, palbociclib, reference compound]
Mouse WT-MEFs
  proliferation of WT MEFs: inhibited
[1]
  proliferation of CDK6−/− MEFs: inhibited
Mouse WT SVFs
  proliferation of mouse WT SVFs: inhibited cell proliferation
CDK6^−/− SVFs (KO-SVFs)
  proliferation of CDK6−/− SVFs: inhibited cell proliferation
